# “And” between values parts separate entries of the source, which are not always exact repeats. Identical values can stand only once. Among all 390,000 compounds or so, about 910 (0.23%) were called active. The inconclusive results got no clear call from the source; some entries with a clear call stand among them for comparison. Calls follow the shape of the dose curve; as a rule, active = well fitted inhibition curve with a large enough effect; inconclusive = small, poorly fitted or top-dose-only effect; inactive = no such curve, though single readings can be large or run the other way. A potency beside an inconclusive call is a rough fit, not a confirmed value.
# Amino acid sequences for entries named in this document (tags omitted). A change or cut given only in a name is not applied to a line headed by its entry.
# UniProt O94782: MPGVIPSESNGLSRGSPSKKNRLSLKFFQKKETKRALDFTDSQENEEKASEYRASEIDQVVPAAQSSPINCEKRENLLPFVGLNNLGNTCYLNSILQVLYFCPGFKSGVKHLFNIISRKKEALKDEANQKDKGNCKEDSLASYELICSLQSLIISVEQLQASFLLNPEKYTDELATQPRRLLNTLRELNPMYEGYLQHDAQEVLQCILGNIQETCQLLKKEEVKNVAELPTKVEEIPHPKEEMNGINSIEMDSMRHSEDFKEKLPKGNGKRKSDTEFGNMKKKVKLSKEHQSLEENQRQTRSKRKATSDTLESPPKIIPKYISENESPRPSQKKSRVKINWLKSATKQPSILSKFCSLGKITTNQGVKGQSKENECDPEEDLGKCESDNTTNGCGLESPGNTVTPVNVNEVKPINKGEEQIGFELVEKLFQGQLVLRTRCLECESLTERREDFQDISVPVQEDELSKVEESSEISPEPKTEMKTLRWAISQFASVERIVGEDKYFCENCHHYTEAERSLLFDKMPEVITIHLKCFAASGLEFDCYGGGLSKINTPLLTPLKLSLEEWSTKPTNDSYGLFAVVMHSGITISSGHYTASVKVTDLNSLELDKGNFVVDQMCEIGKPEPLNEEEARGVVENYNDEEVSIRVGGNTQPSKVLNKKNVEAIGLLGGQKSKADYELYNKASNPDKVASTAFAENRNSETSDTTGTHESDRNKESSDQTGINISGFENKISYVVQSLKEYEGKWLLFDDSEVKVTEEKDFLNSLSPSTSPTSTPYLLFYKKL
# Target: Ubiquitin carboxyl-terminal hydrolase 1 (Homo sapiens) (UniProt O94782)
# Experiment: Inhibitors of USP1/UAF1: Primary Screen; also: nearly all actives have a fitted effect of over 60% in size
# Conditions: recombinant USP1/UAF1, Ub-Rhodamine cleavage fluorescence; activity change, negative = inhibition: at 57.1 µM (top of the series)
# Method in brief: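 Step one: compound is pinned into 1nM USP1/UAF1 in HEPES pH 7.8 buffer with TCEP. Step two: 15 min room-temperature incubation. Step three: Ub-Rho (150nM final) starts cleavage, tracked by fluorescence over six one-minute reads.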
# % is scaled to controls: 0 for no effect and ±100 for the full control effect; potency is read from the fitted curve at half-maximal effect.
SMILES,"activity change, negative = inhibition",Potency
Cc1cccc(NC(=O)CSc2nnc(CNC(=O)c3ccco3)o2)c1,inactive: -16.4%,
Cc1cccc(N=C2NN=C(c3c[nH]c4ccccc34)CS2)c1,,"inconclusive: 44.7 µM [inhibitor, partial curve]"
COc1ccc(C)cc1N(CC(=O)N1CCCC1)S(C)(=O)=O,,"inconclusive: 14.1 µM [inhibitor, partial curve, poor fit]"
O=C(CSc1n[nH]c(-c2ccccn2)n1)Nc1ccc(Cl)cc1,inactive: -16.8%,
COc1ccc(CNC(=O)C2Cc3cc(S(=O)(=O)N4CCCCCC4)ccc3N2C(C)=O)cc1 (centres undefined),inactive: -22.4%,
O=C(OCC1CC(c2ccccc2)=NO1)c1ccc(Cl)cc1 (centres undefined),,"inconclusive: 0.631 µM [inhibitor, full curve, poor fit]"
CC(CN1CCCCC1)OC(=O)COc1ccc(Cl)cc1 (centres undefined),inactive: -2.89%,
COc1ccc(N(Cc2cccs2)C(=O)COc2cc(C)c(Cl)c(C)c2)cc1,,"inconclusive: 0.282 µM [inhibitor, full curve]"
COC(=O)CCCC1=CC2=C(c3ccccc3)C(=O)C(C)(OC(=O)C3CCCC3)C(=O)C2=CN1c1ccc(OC)cc1 (centres undefined),,"inconclusive: 31.6 µM [inhibitor, partial curve]"
COc1ccc(NC(=O)c2cn3c4c(ccc(Cl)c4c2=O)OC(C)C3)cc1OC (centres undefined),inactive: -1.99%,
CCOCCn1c(CN2CCC(Cc3ccccc3)CC2)nc2c1c(=O)n(C)c(=O)n2C,,"inconclusive: 0.708 µM [inhibitor, full curve]"
O=S(=O)(c1ccc2nc(N3CCN(c4ccccc4)CC3)ccc2c1)N1CCCCC1,,"inactive and inconclusive: 25.1 µM [inhibitor, single point]"
Cc1ccc(Cl)c2sc(N3CCN(C(=O)c4ccco4)CC3)nc12,inactive: -25%,
CC(=O)N(C(C)=O)n1c(/C=C/c2ccc([N+](=O)[O-])cc2)nc2ccccc2c1=O,,"inconclusive: 5.01 µM [inhibitor, partial curve, poor fit]"
Cc1oc2ccc(O)c(CN3CCCC3)c2c1C(=O)Nc1cccc(Cl)c1C,,"inconclusive: 5.01 µM [inhibitor, full curve, poor fit]"
C[C@@H]1CN(S(=O)(=O)C(C)(C)C)[C@H](CCO)/C1=C\c1ccccc1,,"inconclusive: 70.8 µM [inhibitor, partial curve, poor fit]"
COc1cc(C=O)c(Br)cc1OCC(=O)NCCc1ccccc1,inactive: -10.3%,
O=C(N/N=C1\CCc2ccccc21)c1ccccc1Cl,inactive: -24.8%,
CCOC(=O)N1C(=O)[C@@](c2ccc(Cl)cc2)(C(C)C)N1C(=O)OCC,,"inconclusive: 50.1 µM [inhibitor, partial curve, poor fit]"

# Reference: PubChem BioAssay AID743255 (National Center for Advancing Translational Sciences (NCATS), 2014)
